Laboratory results published in the supplement of paper PMC11098740.
Structures can show the parent of a compound that is named as a salt. The list shows a part of the results. Repeats are few or missing, and single values can be far off.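 Test system: a mixed pool of 41 HAP1 clones in which 61 cancer-associated proteins carry fluorescent tags inserted into introns, and each clone is identified from its image pattern. Read-outs are compared with DMSO-treated control wells. The BRD4 degrader dBET6 served as the positive control.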

These molecules were tested against BRD4 (intron 10 mScarlet tag, HAP1) (UniProt O60885) (assay: BRD4 median nuclear fluorescence intensity change vs DMSO (log2 fold change); higher = more BRD4 protein). Details: 6 h.
`CCC(=C/[C@H](C)C/C=C/C(C)=C/[C@@H](C)C(=O)[C@@H](C)[C@H](O)[C@@H](C)C/C(C)=C/C(=O)O)/C=C/[C@@H]1OC(=O)C=C[C@@H]1C` [leptomycin b] (0.01 µM) was tested, and the “BRD4 median nuclear fluorescence intensity change (log2)” value was 0.0108.
`COc1cccc2c1C(=O)c1c(O)c3c(c(O)c1C2=O)C[C@@](O)(C(=O)CO)C[C@@H]3O[C@H]1C[C@H](N)[C@H](O)[C@H](C)O1` [doxorubicin] (0.09215 µM) was tested, and the “BRD4 median nuclear fluorescence intensity change (log2)” value was 0.077.
For `CC[N+](C)(C)Cc1ccccc1Br` [bretylium tosylate] (17 µM), the “BRD4 median nuclear fluorescence intensity change (log2)” value was 0.0379.
With `CC(N/C(=N\C#N)Nc1ccncc1)C(C)(C)C` (centres undefined) [pinacidil] (10 µM) the “BRD4 median nuclear fluorescence intensity change (log2)” value was -0.00458.
In the case of `C[C@]12C=CC(=O)C=C1CC[C@@H]1[C@@H]2[C@@H](O)C[C@@]2(C)[C@H]1CC[C@]2(O)C(=O)CO` [prelone] (1.1755 µM), the “BRD4 median nuclear fluorescence intensity change (log2)” value is reported as 0.147.
For `Cc1[nH]c(=O)c(C#N)cc1-c1ccncc1` [milrinone] (10.0021 µM), the “BRD4 median nuclear fluorescence intensity change (log2)” value was -0.031.
In the case of `C[C@H](N[C@@H](CCc1ccccc1)C(=O)O)C(=O)N1CCC[C@H]1C(=O)O` [enalaprilat] (9.99909 µM), the “BRD4 median nuclear fluorescence intensity change (log2)” value is reported as -0.061.
`COc1cc2nccc(Oc3ccc(NC(=O)C4(C(=O)Nc5ccc(F)cc5)CC4)cc3)c2cc1OC` [cabozantinib] (20 µM) was tested, and the “BRD4 median nuclear fluorescence intensity change (log2)” value was -0.00306.
In the case of `COc1ccccc1Oc1c(NS(=O)(=O)c2ccc(C(C)(C)C)cc2)nc(-c2ncccn2)nc1OCCO` [bosentan] (9.99938 µM), the “BRD4 median nuclear fluorescence intensity change (log2)” value is reported as 0.148.
In the case of `C[C@H]1[C@@H](O)O[C@@H]2O[C@@]3(C)CC[C@H]4[C@H](C)CC[C@@H]1[C@@]24OO3` [dihydroartemisinin] (10 µM), the “BRD4 median nuclear fluorescence intensity change (log2)” value is reported as 0.0171.
`CC(C)(C#N)c1cc(Cn2cncn2)cc(C(C)(C)C#N)c1` [anastrozole] (20 µM) was tested, and the “BRD4 median nuclear fluorescence intensity change (log2)” value was 0.0203.
`CC(C)C[C@H](NC(=O)[C@@H](Cc1c[nH]c2ccccc12)NC(=O)[C@H](Cc1ccc(O)cc1)NC(=O)[C@H](CO)NC(=O)[C@H](Cc1c[nH]c2ccccc12)NC(=O)[C@H](Cc1c[nH]cn1)NC(=O)[C@@H]1CCC(=O)N1)C(=O)N[C@@H](CCCNC(=N)N)C(=O)N1CCC[C@H]1C(=O)NCC(N)=O` [triptorelin] (20 µM) was tested, and the “BRD4 median nuclear fluorescence intensity change (log2)” value was -0.0134.
With `CNC(=C[N+](=O)[O-])NCCSCc1csc(CN(C)C)n1` [nizatidine] (10 µM) the “BRD4 median nuclear fluorescence intensity change (log2)” value was 0.133.
With `CCCCC1C(=O)N(c2ccccc2)N(c2ccc(O)cc2)C1=O` (centres undefined) [oxyphenbutazone] (10 µM) the “BRD4 median nuclear fluorescence intensity change (log2)” value was 0.0566.
In the case of `CO[C@H]1/C=C/O[C@@]2(C)Oc3c(C)c(O)c4c(c3C2=O)C2=NC3(CCN(CC(C)C)CC3)NC2=C(NC(=O)/C(C)=C\C=C\[C@H](C)[C@H](O)[C@@H](C)[C@@H](O)[C@@H](C)[C@H](OC(C)=O)[C@@H]1C)C4=O` [rifabutin] (9.99925 µM), the “BRD4 median nuclear fluorescence intensity change (log2)” value is reported as 0.144.
`O=C(Nc1ncc([N+](=O)[O-])s1)c1ccccc1O` [tizoxanide] (10 µM) was tested, and the “BRD4 median nuclear fluorescence intensity change (log2)” value was 0.124.
`Nc1nc(F)nc2c1ncn2[C@@H]1O[C@H](CO)[C@@H](O)[C@@H]1O` [fludarabine] (9.99886 µM) was tested, and the “BRD4 median nuclear fluorescence intensity change (log2)” value was 0.0527.
With `OC[C@H]1O[C@@H](n2cnc3c2N=CNC[C@H]3O)C[C@@H]1O` [pentostatin] (14.69 µM) the “BRD4 median nuclear fluorescence intensity change (log2)” value was 0.0317.
With `O=C(C1CCCCC1)N1CC(=O)N2CCc3ccccc3C2C1` (centres undefined) [praziquantel] (9.99966 µM) the “BRD4 median nuclear fluorescence intensity change (log2)” value was 0.097.
For `CC/C(=C(\c1ccccc1)c1ccc(OCCN(C)C)cc1)c1ccccc1` [tamoxifen] (20 µM), the “BRD4 median nuclear fluorescence intensity change (log2)” value was 0.0678.
With `Oc1ncnc2[nH]ncc12` [allopurinol] (10 µM) the “BRD4 median nuclear fluorescence intensity change (log2)” value was 0.0389.
With `CCCN(CCC)S(=O)(=O)c1ccc(C(=O)O)cc1` [probenecid] (10 µM) the “BRD4 median nuclear fluorescence intensity change (log2)” value was -0.0129.
`O=C(CCCCCCC(=O)Nc1ccccc1)NO` [vorinostat] (3.889 µM) was tested, and the “BRD4 median nuclear fluorescence intensity change (log2)” value was -0.065.
With `CCn1cc(C(=O)O)c(=O)c2cc(F)c(N3CCNCC3)nc21` [enoxacin] (10 µM) the “BRD4 median nuclear fluorescence intensity change (log2)” value was 0.0954.
In the case of `CO/N=C(\C(=O)N[C@@H]1C(=O)N2C(C(=O)O)=C(CSc3nnnn3C)CS[C@H]12)c1csc(N)n1` [cefmenoxime] (10 µM), the “BRD4 median nuclear fluorescence intensity change (log2)” value is reported as 0.0392.
For `CCc1c2c(nc3ccc(O)cc13)-c1cc3c(c(=O)n1C2)COC(=O)[C@]3(O)CC` [7-ethyl-10-hydroxy-camptothecin] (10 µM), the “BRD4 median nuclear fluorescence intensity change (log2)” value was -0.0581.
With `C[C@]12C=CC(=O)C=C1CC[C@@H]1[C@@H]2[C@@H](O)C[C@@]2(C)[C@H]1CC[C@]2(O)C(=O)CO` [prednisolone] (10 µM) the “BRD4 median nuclear fluorescence intensity change (log2)” value was 0.132.
With `COc1cc(N)c(Cl)cc1C(=O)NC1CCNCC1OC` (centres undefined) [norcisapride] (7.74983 µM) the “BRD4 median nuclear fluorescence intensity change (log2)” value was 0.0343.
For `c1cnc2cc3c(cc2n1)[C@@H]1CNC[C@H]3C1` [varenicline] (10 µM), the “BRD4 median nuclear fluorescence intensity change (log2)” value was 0.0704.
With `Cc1nc(-c2ccc(OCC(C)C)c(C#N)c2)sc1C(=O)O` [febuxostat] (10 µM) the “BRD4 median nuclear fluorescence intensity change (log2)” value was 0.028.
With `N=C(N)NCC1COC2(CCCCC2)O1` (centres undefined) [guanadrel] (10 µM) the “BRD4 median nuclear fluorescence intensity change (log2)” value was 0.0889.
In the case of `C#C[C@]1(O)CC[C@H]2[C@@H]3CCC4=CC(=O)CC[C@@H]4[C@H]3CC[C@@]21CC` [levonorgestrel] (9.99976 µM), the “BRD4 median nuclear fluorescence intensity change (log2)” value is reported as 0.0645.
In the case of `CC#CCC(C)[C@H](O)/C=C/[C@@H]1[C@H]2C/C(=C/CCCC(=O)O)C[C@H]2C[C@H]1O` (some centres undefined) [iloprost] (10 µM), the “BRD4 median nuclear fluorescence intensity change (log2)” value is reported as -0.0154.
`CCCCCCCCCCC[C@@H](C[C@@H]1OC(=O)[C@H]1CCCCCC)OC(=O)[C@H](CC(C)C)NC=O` [orlistat] (10 µM) was tested, and the “BRD4 median nuclear fluorescence intensity change (log2)” value was 0.076.
`CN[C@@H]1C[C@H]2O[C@@](C)([C@@H]1OC)n1c3ccccc3c3c4c(c5c6ccccc6n2c5c31)C(=O)N[C@H]4O` [ucn-01 (7-hydroxystaurosporine)] (10 µM) was tested, and the “BRD4 median nuclear fluorescence intensity change (log2)” value was -0.232.
In the case of `CN1CCN(CCCN2c3ccccc3Sc3ccc(C(F)(F)F)cc32)CC1` [trifluoperazine] (10.00057696 µM), the “BRD4 median nuclear fluorescence intensity change (log2)” value is reported as 0.115.
`OCCN1C[C@H](O)[C@@H](O)[C@H](O)[C@H]1CO` [miglitol] (10 µM) was tested, and the “BRD4 median nuclear fluorescence intensity change (log2)” value was 0.00264.
With `CCN1CC(CCN2CCOCC2)C(c2ccccc2)(c2ccccc2)C1=O` (centres undefined) [doxapram] (10 µM) the “BRD4 median nuclear fluorescence intensity change (log2)” value was 0.057.
`Cc1ccc(NC(=O)c2ccc(CN3CCN(C)CC3)cc2)cc1Nc1nc(-c2cccnc2)cs1` [masitinib] (10 µM) was tested, and the “BRD4 median nuclear fluorescence intensity change (log2)” value was 0.0805.
